Results on two substances are retold here after PMC11157765.

The chains behind the UniProt entries cited, without tags or fusion partners. Residues count along the entry.
UniProt Q6UX06, residues 21-510: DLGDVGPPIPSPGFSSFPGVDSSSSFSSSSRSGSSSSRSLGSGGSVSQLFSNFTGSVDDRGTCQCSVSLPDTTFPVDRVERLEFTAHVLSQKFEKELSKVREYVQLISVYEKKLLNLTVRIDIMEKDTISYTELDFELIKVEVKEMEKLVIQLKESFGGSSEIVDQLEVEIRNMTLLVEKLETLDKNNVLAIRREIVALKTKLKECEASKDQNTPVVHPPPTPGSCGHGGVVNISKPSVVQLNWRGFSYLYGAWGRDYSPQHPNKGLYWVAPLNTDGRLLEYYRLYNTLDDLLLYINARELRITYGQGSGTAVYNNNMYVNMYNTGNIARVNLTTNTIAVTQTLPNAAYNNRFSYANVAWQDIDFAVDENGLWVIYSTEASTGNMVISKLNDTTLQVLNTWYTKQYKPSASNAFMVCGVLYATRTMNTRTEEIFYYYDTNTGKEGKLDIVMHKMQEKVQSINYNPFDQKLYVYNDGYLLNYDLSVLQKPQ
UniProt P35579: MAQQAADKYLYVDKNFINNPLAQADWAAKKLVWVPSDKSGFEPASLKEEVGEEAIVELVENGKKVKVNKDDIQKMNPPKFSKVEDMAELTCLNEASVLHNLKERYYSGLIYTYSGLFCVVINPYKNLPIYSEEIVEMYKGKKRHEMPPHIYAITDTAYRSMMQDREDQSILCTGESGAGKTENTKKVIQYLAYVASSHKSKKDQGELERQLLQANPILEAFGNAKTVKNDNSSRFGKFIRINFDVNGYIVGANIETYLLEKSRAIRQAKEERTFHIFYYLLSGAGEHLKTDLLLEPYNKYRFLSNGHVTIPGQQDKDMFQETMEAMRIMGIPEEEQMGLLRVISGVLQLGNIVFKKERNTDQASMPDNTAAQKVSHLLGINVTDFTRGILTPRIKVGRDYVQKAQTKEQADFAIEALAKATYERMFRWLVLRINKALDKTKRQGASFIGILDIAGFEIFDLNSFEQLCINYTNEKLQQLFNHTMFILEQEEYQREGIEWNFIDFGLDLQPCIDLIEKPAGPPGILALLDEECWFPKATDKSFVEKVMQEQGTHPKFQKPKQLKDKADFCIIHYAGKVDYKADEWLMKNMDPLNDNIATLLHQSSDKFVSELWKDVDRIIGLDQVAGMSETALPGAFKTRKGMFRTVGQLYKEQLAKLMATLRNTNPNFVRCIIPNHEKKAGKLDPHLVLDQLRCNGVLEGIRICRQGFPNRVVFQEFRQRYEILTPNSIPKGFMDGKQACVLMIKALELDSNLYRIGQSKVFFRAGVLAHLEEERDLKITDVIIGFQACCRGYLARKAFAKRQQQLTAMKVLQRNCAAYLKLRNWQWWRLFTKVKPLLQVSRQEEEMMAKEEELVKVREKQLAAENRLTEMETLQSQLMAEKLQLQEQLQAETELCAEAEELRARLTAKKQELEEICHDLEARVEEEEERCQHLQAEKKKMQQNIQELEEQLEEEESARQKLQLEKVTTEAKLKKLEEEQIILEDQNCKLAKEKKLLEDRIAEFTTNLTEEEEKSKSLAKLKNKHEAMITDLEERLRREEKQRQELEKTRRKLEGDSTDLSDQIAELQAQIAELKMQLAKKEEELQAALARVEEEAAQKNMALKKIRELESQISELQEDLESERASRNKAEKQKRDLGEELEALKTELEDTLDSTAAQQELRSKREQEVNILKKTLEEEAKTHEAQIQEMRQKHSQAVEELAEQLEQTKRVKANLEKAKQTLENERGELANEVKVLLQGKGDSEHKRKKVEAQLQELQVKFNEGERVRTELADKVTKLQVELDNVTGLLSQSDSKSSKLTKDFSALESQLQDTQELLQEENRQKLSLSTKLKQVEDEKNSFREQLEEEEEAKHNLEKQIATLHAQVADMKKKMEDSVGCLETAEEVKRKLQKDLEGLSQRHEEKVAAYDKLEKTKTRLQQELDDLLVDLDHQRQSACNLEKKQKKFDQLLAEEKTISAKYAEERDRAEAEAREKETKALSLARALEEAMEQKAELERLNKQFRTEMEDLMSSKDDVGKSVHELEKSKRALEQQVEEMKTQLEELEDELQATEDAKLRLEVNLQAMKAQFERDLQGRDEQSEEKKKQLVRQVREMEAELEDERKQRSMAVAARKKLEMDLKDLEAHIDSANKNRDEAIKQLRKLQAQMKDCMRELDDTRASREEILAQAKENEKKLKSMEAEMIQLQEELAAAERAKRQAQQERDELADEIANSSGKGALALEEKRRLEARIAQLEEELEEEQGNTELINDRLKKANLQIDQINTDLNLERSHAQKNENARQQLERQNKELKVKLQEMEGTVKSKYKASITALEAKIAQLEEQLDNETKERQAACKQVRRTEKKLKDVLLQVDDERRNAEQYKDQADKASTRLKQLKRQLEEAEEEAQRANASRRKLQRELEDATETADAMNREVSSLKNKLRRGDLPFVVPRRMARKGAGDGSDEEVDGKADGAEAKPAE

The target of assay [1] is Olfactomedin-4 (OLFM4) (UniProt Q6UX06). The assay can be described thus: co-IP; cell lysates (cells not stated); forward IP with the OLFM4 antibody, reverse IP with the MYH9 antibody; Protein A/G magnetic beads; Western Blot. Background: A western blot detects proteins with antibodies after separation by electrophoresis.
The target in assay [2] is Myosin heavy chain 9 (MYH9) (human (endogenous in GES-1)) (UniProt P35579). The assay is described as above.

These are yes or no findings as the source states them, for the method shown. In cells and extracts the contact can be indirect. Some results given as binding are weak or reduced against the parent protein; the word gives no strength.

On to “Myosin heavy chain 9 (MYH9) (from UniProt P35579 1-1960)”, for which the binding entry in assay [1] is “binds”.

“Olfactomedin-4 (OLFM4) (from UniProt Q6UX06 21-510)”: the binding entry in assay [2] was “binds”.
